Not every detail of the peptide structures is certain; ends, links or a residue may be inferred. No end group written: not given here.
Test system: anti-(390-404) antibody
Experiment: Solid-phase ELISA: binding of anti-(390-404) antibody to immobilized peptides and PC
Design: species or system rabbit
Method: To determine the immunospecificity of the rabbit antisera obtained in Example 2b, ELISA assays were performed. Briefly, 50 μl of either 50 μM peptide-(390-404) prepared in Example 1 or 10 μg/ml of PC or APC prepared in Example 2c in a buffer consisting of 0.05M sodium carbonate (Na2 CO3) and 0.02% NaN3 at pH 9.0 were admixed into the wells of microtiter plates. The plates were maintained at 37° C. for one hour to permit the antigens to become operatively affixed to the well walls. After washing the antigen-coated wells with TBS, the wells were blocked with 250 μl/well of 10% bovine serum albumin (BSA) (Sigma) in TBS for one hour at 22° C. […] Detection of specific immunoreaction products was obtained by admixture of 150 μl/well of 5 mg/ml p-nitrophenylphosphate (PNPP) (Pierce Biochemicals) in 0.1M diethanolamine and 0.02% NaN3 at pH 9.6 followed by measurement of the change in absorbance at 405 nm over time using the EL312 Microplate Bio-Kinetics Reader and the KinetiCalc Software Program (Biotek Instruments, Inc., Vt.). Non-specific binding was considered as the measured absorbance in 10% BSA blocked wells which served as negative controls without the preceding coating of a specific protein or peptide. […]

## YGVYTKVSRYLDWIH-NH2 [peptide-(390-404), YGVYTKVSRYLDWIH]
solid-phase ELISA
  binding of anti-(390-404) antibody to immobilized peptide or PC: specifically recognized
Wells coated with 50 μM peptide or 10 μg/ml PC, 2 μg/ml anti-(390-404) antibody, mean of duplicates
  Anti-(390-404) (Absorbance/20 min.): 493 Absorbance/20 min.

Source: patent US5279956A, “Activated protein C polypeptides and anti-peptide antibodies, diagnostic methods and systems for inhibiting activated protein C” (The Scripps Research Institute, priority 1991, dated 1994)
